Earlier results, collected in publication PMC7527510, “Identification of the dog orthologue of human MAS-related G protein coupled receptor X2 (MRGPRX2) essential for drug-induced pseudo-allergic reactions” (Scientific Reports, 2020).

Key:
[1] = system: dispersed canine skin mast cells; parameters: method as in PMID 10864147; conditions: cited from earlier work
[2] = system: dispersed mast cells of human skin; conditions: cited from earlier work

O=C(O)c1cn(C2CC2)c2cc(N3CCNCC3)c(F)cc2c1=O [CPFX, ciprofloxacin]
Concentration inducing histamine release from dispersed canine skin mast cells [1]: ≥ 10 µg/mL | Concentration required to induce histamine release from dispersed mast cells of human skin [2]: 200 µg/mL
